Test results published in the supplement of paper PMC11006884.
The entries are a selection whose mix differs from that of the whole data set.

By UniProt entry, the sequences of proteins in these tests, tags left out. Where a name states a change or a piece, a line headed by the entry shows the natural chain unless it says otherwise.
UniProt Q9Y312: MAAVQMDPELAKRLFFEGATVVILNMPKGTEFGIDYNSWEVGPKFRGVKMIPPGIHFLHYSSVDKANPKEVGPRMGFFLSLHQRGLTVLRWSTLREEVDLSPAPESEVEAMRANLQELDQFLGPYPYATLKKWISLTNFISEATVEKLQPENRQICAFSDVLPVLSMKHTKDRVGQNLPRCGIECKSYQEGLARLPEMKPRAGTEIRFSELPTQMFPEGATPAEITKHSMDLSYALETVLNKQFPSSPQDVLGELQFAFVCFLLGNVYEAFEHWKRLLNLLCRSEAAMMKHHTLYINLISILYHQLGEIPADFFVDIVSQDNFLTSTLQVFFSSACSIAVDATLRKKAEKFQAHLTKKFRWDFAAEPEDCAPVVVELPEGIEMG
UniProt Q9UPN4: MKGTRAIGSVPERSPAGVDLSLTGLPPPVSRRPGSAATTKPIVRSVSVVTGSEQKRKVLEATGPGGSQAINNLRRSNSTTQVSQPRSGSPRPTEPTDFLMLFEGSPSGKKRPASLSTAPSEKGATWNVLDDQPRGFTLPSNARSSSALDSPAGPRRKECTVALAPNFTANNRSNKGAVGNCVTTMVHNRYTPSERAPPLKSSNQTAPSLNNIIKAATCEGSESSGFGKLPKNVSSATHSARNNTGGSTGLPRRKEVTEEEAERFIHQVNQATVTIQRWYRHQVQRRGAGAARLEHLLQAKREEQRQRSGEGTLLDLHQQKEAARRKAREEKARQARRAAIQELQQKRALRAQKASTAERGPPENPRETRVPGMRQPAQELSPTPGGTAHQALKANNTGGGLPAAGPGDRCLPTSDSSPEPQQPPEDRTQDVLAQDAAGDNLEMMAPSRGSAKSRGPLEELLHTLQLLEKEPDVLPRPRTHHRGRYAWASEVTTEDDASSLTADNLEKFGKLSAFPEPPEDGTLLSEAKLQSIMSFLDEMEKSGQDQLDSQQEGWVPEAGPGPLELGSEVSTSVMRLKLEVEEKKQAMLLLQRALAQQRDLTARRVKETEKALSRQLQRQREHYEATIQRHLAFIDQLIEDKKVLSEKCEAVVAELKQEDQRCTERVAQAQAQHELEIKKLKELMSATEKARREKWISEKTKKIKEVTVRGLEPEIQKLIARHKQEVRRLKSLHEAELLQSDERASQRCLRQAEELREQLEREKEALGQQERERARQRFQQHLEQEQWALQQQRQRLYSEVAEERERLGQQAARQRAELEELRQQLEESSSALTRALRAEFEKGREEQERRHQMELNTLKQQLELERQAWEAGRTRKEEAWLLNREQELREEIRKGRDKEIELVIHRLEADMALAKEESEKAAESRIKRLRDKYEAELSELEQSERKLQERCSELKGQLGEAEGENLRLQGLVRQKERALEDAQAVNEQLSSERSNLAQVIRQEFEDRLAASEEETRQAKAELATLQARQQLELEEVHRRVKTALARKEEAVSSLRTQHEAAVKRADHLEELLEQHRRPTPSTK
UniProt Q9Y324: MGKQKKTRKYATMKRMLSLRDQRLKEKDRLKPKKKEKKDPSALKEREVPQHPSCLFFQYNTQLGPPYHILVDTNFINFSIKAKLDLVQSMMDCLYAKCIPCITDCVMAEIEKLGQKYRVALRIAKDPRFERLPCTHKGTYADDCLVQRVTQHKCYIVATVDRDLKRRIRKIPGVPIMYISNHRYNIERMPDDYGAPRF
UniProt Q9Y223: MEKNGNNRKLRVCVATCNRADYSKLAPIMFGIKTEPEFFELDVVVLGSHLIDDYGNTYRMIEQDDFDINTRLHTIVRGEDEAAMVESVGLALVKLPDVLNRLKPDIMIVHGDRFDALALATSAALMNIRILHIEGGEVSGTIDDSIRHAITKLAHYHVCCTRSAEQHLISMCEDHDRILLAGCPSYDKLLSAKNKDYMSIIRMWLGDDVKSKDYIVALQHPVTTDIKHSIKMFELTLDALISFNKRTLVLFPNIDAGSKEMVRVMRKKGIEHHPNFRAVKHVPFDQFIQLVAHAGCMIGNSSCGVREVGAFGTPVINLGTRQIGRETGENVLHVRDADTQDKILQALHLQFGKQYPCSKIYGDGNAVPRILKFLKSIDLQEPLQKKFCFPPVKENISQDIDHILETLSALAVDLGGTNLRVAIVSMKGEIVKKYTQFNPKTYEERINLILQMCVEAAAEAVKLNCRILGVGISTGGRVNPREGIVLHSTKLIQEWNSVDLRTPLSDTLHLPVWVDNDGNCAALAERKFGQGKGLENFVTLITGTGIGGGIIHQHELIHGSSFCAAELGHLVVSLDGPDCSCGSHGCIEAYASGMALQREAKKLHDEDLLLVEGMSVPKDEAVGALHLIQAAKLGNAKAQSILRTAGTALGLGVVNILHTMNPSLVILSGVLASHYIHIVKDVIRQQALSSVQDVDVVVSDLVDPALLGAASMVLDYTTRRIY
UniProt Q9UJV9: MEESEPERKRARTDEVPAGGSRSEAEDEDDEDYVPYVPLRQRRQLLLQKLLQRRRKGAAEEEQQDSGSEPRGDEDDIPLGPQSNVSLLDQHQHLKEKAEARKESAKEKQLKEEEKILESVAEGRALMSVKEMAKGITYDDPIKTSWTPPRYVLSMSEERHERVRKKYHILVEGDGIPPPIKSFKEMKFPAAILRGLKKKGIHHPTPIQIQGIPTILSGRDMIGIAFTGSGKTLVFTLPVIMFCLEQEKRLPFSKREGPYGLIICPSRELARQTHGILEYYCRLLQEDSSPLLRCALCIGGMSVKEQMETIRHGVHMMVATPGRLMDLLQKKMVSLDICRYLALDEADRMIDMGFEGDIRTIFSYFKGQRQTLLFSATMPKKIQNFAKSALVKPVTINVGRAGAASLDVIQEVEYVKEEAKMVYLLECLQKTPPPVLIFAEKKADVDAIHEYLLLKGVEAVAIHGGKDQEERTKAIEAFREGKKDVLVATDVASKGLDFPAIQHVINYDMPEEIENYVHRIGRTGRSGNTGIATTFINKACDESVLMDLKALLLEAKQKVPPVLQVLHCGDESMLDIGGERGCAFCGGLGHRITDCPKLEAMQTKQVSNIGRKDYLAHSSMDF
UniProt Q9ULK4: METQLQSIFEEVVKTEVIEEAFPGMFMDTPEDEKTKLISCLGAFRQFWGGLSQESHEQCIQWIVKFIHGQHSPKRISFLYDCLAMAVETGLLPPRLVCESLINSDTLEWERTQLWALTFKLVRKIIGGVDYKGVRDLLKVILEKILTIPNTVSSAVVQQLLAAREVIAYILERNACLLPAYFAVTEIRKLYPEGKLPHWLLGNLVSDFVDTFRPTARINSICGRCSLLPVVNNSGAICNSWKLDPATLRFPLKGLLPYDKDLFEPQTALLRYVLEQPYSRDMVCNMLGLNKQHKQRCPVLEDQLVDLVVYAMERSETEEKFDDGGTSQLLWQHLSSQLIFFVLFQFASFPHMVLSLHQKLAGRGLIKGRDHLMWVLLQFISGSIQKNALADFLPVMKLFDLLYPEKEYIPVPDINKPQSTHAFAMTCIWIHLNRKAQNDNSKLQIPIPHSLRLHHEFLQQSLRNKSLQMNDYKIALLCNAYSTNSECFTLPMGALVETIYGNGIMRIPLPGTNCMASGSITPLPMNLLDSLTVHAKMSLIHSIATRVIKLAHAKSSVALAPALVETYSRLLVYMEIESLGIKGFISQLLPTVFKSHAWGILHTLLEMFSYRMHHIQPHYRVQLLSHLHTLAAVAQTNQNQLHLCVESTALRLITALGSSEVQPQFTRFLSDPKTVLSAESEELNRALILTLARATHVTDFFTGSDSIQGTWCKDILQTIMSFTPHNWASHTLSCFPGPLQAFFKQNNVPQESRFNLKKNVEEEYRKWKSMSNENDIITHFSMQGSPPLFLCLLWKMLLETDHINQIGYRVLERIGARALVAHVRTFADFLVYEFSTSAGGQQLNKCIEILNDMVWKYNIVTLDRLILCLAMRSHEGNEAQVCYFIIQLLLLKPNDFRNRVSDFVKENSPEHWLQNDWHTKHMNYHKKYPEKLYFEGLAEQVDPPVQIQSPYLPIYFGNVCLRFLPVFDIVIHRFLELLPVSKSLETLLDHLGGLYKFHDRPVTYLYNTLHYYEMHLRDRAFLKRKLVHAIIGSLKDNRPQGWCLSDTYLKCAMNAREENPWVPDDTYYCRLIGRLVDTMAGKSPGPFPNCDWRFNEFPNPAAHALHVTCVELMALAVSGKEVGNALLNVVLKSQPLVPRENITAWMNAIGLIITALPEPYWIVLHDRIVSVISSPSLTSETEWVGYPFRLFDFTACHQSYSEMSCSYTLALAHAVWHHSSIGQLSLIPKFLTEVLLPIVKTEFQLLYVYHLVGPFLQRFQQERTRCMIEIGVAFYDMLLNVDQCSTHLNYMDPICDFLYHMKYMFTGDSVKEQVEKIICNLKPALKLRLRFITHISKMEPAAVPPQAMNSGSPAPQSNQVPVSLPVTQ
UniProt Q9Y450, whole entry: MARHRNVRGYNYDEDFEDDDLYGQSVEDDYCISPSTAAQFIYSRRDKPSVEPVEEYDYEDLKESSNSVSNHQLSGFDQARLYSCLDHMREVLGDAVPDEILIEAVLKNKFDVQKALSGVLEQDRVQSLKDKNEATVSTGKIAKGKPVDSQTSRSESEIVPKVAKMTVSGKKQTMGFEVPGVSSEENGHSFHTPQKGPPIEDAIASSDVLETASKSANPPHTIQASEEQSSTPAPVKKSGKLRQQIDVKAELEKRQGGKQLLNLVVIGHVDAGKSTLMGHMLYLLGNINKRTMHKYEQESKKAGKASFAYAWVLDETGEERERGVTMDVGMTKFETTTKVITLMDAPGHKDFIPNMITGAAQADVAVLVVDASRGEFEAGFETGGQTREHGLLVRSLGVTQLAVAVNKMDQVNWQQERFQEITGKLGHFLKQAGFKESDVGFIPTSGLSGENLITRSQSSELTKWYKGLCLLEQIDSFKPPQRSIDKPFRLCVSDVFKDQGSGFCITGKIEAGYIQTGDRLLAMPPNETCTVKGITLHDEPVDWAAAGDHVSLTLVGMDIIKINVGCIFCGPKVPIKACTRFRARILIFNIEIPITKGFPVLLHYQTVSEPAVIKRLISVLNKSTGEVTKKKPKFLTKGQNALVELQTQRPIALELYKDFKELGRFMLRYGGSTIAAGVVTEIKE
UniProt Q9Y3P9: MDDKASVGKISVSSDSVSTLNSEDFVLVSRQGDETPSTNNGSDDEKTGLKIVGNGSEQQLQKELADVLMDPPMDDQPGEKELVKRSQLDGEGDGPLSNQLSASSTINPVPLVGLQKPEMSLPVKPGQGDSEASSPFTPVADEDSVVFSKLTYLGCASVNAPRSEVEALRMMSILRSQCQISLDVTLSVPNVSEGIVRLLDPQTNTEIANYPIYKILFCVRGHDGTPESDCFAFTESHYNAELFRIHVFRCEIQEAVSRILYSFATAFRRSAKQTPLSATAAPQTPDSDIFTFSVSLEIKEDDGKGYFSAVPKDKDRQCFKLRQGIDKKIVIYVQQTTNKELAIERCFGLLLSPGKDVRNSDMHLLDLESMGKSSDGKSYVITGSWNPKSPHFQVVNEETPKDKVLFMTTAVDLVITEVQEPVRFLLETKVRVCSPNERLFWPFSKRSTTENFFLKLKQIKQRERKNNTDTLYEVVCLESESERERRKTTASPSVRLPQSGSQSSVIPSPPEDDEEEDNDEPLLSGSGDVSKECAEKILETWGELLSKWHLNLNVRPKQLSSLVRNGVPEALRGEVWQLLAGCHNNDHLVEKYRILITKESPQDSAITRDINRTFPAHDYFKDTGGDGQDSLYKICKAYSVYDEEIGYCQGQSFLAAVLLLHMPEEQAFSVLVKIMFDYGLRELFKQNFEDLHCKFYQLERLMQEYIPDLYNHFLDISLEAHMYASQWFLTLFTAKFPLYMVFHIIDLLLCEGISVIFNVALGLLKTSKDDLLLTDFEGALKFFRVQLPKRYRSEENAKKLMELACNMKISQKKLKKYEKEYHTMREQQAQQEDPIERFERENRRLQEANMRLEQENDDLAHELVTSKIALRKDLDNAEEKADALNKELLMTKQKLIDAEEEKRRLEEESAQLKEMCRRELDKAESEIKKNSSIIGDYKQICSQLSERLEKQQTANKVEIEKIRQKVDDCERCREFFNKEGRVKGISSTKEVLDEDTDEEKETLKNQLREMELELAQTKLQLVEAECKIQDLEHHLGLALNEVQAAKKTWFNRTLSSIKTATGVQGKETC
UniProt Q9Y2P8: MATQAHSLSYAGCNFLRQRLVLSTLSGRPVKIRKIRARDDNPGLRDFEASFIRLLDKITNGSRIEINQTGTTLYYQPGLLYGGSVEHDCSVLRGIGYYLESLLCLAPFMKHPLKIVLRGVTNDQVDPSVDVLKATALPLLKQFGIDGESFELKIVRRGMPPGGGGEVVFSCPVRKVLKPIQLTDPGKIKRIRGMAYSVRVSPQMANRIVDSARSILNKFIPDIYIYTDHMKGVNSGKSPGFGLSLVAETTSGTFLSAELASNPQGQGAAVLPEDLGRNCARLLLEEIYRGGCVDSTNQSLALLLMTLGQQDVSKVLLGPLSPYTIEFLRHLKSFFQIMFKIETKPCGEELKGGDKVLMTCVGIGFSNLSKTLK

compound: COC(=O)C#Cc1ccccc1 [methyl 3-phenylpropiolate]; assay: log2 ratio of iodoacetamide-alkyne labeling of the cysteine site, DMSO over compound (competition); higher = stronger covalent engagement of the cysteine by the compound, active = 1 or more; conditions: 500 µM; treatment time 1 h; system: HEK293T cell lysate
How it was run: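 Electrophile (500 µM) or vehicle was added to HEK293T lysate (2 mg/mL) for 1 h at ambient temperature before iodoacetamide alkyne labelling (1 h) and click coupling to sCIP-TMT reagents. After pooling, overnight trypsin digestion at 37 °C, streptavidin enrichment and acid elution, peptides were measured by Orbitrap Eclipse LC-MS/MS with FAIMS and quantified in FragPipe. Each cysteine's log2 competition ratio compares mean control-channel with mean compound-channel reporter intensity, control over compound. Data came from duplicate channels across three replicates, excluding cysteines quantified in only one replicate.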

log2 ratio of iodoacetamide-alkyne labeling, inactive:
MSRB2 C105 (UniProt Q9Y3D2) 0.956
UniProt Q9Y312_C156 0.41
UniProt Q9UPN4_C181 0.641
ACIN1 C1223 (UniProt Q9UKV3) 0.00206
LUC7L2 C97 (UniProt Q9Y383) -0.0874
FCF1 C154 (UniProt Q9Y324) 0.167
GNE C357 (UniProt Q9Y223) 0.234
DDX41 C568 (UniProt Q9UJV9) 0.462
TIMELESS C606 (UniProt Q9UNS1) 0.112
UniProt Q9Y3L5_C140 0.267
ACIN1 C691 (UniProt Q9UKV3) 0.212
MED23 C1043 (UniProt Q9ULK4) 0.807
HBS1L C31 (UniProt Q9Y450) 0.168
RABGAP1 C476 (UniProt Q9Y3P9) 0.117
MRPS16 C41 (UniProt Q9Y3D3) 0.935
RCL1 C13 (UniProt Q9Y2P8) -0.0901

No new results follow: entries from further up.
log2 ratio of iodoacetamide-alkyne labeling, inactive:
UniProt Q9Y312_C156 0.41
UniProt Q9UPN4_C181 0.641
